Our source for the binding values is publication PMC7521688.

Chains of the proteins cited; added tags and fusions are not shown. Residues count along the entry.
UniProt O83732, residues 25-237: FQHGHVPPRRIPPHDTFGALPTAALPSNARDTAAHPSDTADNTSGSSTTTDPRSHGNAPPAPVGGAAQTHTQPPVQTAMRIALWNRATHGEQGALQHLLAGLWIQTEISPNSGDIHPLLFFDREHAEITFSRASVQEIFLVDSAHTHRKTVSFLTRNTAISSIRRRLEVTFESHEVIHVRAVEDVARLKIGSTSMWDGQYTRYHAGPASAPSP

No constants are given. Whether binding was seen depends on the method and setting.

The assay deals with TP0751^25-237 (full-length TP0751 without its signal sequence) (Treponema pallidum) (UniProt O83732). Put plainly: SEC; analytical gel filtration, Superdex 200 Increase 10/300 GL calibrated with molecular weight standards; 50 mM Tris-HCl pH 7.5, 50 mM NaCl, 1 mM DTT; flow rate 0.5 ml/min; both purified.

For “TP0751^25-237 (full-length TP0751 without its signal sequence) (from UniProt O83732 25-237)”, the binding entry is “no binding”.
